According to patent US6559173B1, “3-(heteroarylamino)methylene-1,3-dihydro-2H-indol-2-ones as kinase inhibitors” (Allergan, Inc., priority 2001, dated 2003):
Some results were stated once for a whole list of compounds, not compound by compound. Each block holds one compound with its values, some of them ahead of it.

Chains of the proteins cited; added tags and fusions are not shown. Residues count along the entry.
UniProt P35968, 786-1356 limits assumed: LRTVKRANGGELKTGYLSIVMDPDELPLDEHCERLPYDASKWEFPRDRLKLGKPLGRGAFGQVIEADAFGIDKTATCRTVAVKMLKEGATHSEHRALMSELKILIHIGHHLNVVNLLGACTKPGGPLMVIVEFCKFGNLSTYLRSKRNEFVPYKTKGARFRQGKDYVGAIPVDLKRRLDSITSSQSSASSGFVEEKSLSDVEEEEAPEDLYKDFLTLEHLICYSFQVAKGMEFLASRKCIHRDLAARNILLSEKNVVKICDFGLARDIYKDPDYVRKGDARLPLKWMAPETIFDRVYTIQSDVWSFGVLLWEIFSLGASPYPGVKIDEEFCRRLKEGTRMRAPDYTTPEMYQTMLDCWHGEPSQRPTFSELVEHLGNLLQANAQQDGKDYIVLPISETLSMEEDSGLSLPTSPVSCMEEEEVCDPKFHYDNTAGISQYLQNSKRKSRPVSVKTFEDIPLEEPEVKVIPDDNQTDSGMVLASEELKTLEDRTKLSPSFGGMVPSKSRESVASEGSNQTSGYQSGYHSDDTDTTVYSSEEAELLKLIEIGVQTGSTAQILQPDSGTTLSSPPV

Biological target: T1, cytoplasmic domain of the human VEGF receptor (VEGFR-2) (Homo sapiens, UniProt P35968)
T1 construct: The cytoplasmic domain of the human VEGF receptor (VEGFR-2) was expressed as a Histidine-tagged fusion protein; His tag (Histidine-tagged fusion); made in house; host or cells: insect cells (engineered baculovirus)
Experiment: KDR Assay
Type: biochemical
Settings: His-VEGFR-2, 3.6 μM ATP, poly-Glu-Tyr (4:1)
Method: The cytoplasmic domain of the human VEGF receptor (VEGFR-2) was expressed as a Histidine-tagged fusion protein following infection of insect cells using an engineered baculovirus. His-VEGFR-2 was purified to homogeneity, as determined by SDS-PAGE, using nickel resin chromatography. Kinase assays were performed in 96 well microtiter plates that were coated overnight with 30 μg of poly-Glu-Tyr (4:1) in 10 mM Phosphate Buffered Saline (PBS), pH 7.2-7.4. The plates were incubated with 1% BSA and then washed four times with PBS prior to starting the reaction. Reactions were carried out in 120 μL reaction volumes containing 3.6 μM ATP in kinase buffer (50 mM Hepes buffer pH 7.4, 20 mM MgCl2, 0.1 mM MnCl2 and 0.2 mM Na3VO4). Test compounds were reconstituted in 100% DMSO and added to the reaction to give a final DMSO concentration of 5%. Reactions were initiated by the addition 0.5 ng of purified protein. Following a ten minute incubation at 25° C., the reactions were washed four times with PBS containing 0.05% Tween-20. 100 μl of a monoclonal anti-phosphotyrosine antibody-peroxidase conjugate was diluted 1:10000 in PBS-Tween-20 and added to the wells for 30 minutes. Following four washes with PBS-Tween-20, 100 μl of 0-Phenylenediamine Dihydrochloride in Phosphate-citrate buffer, containing urea hydrogen peroxide, was added to the wells for 7 minutes as a colorimetric substrate for the peroxidase. The reaction was terminated by the addition of 100 μl of 2.5N H2SO4 to each well and read using a microplate ELISA reader set at 492 nm. IC50 values for compound inhibition were calculated directly from graphs of optical density (arbitrary units) versus compound concentration following subtraction of blank values.

SMILES: COc1ccc(Cc2cc(NC=C3C(=O)Nc4ccccc43)n[nH]2)cc1 [Example 5, 3-{[5-(4-Methoxy-benzyl)-1H-pyrazol-3-ylamino]-methylene}-1,3-dihydro-indol-2-one]
IC50: ≤ 1 µM

SMILES: Cc1cccc2c1C(=CNc1cc[nH]n1)C(=O)N2 [Example 6, 4-Methyl-3-[(1H-pyrazol-3-ylamino)-methylene]-1,3-dihydro-indol-2-one]
IC50: ≤ 1 µM

SMILES: Cc1cccc2c1C(=CNc1cc(-c3ccco3)[nH]n1)C(=O)N2 [Example 7, 3-[(5-Furan-2-yl-1H-pyrazol-3-ylamino)-methylene]-4-methyl-1,3-dihydro-indol-2-one]
IC50: ≤ 1 µM

SMILES: O=C1Nc2ccc(F)cc2C1=CNc1cc(-c2ccco2)[nH]n1 [Example 27, 5-Fluoro-3-[(5-furan-2-yl-1H-pyrazol-3-ylamino)-methylene]-1,3-dihydro-indol-2-one]
IC50: ≤ 1 µM

SMILES: O=C1Nc2ccccc2C1=CNc1cc(-c2ccco2)[nH]n1 [Example 4, 3-[(5-Furan-2-yl-1H-pyrazol-3-ylamino)-methylene]-1,3-dihydro-indol-2-one]
IC50: ≤ 1 µM

SMILES: Cc1oc(C(C)(C)C)cc1-c1cc(NC=C2C(=O)Nc3ccccc32)[nH]n1 [Example 29, 3-{[5-(5-tert-Butyl-2-methyl-furan-3-yl)-2H-pyrazol-3-ylamino]-methylene}-1,3-dihydro-indol-2-one]
IC50: ≤ 1 µM

Results, then the compound that gave them:

IC50: ≤ 1 µM
SMILES: Cc1cc(NC=C2C(=O)Nc3ccccc32)n[nH]1 [Example 23, 3-[(5-Methyl-1H-pyrazol-3-ylamino)-methylene]-1,3-dihydro-indol-2-one]

IC50: ≤ 1 µM
SMILES: Cc1cc(NC=C2C(=O)Nc3ccc(F)cc32)n[nH]1 [Example 26, 5-Fluoro-3-[(5-methyl-1H-pyrazol-3-ylamino)-methylene]-1,3-dihydro-indol-2-one]

IC50: ≤ 1 µM
SMILES: Cc1cc(NC=C2C(=O)Nc3cc(F)ccc32)n[nH]1 [Example 49, 6-Fluoro-3-[(5-methyl-1H-pyrazol-3-ylamino)-methylene]-1,3-dihydro-indol-2-one]

IC50: ≤ 1 µM
SMILES: O=C1Nc2cc(F)ccc2C1=CNc1cc(-c2ccco2)[nH]n1 [Example 50, 6-Fluoro-3-[(5-furan-2-yl-1H-pyrazol-3-ylamino)-methylene]-1,3-dihydro-indol-2-one]
